Results are given in words; binding and its absence hold for the method and conditions named. Some binding calls cover weakened binding; strength is not graded here.
Experiments:
[1] = target: T1, CRS (Cysteinyl-tRNA synthetase), purified recombinant antigen (human) (UniProt P49589); assay: Luminex multiplex bead assay, CRS coupled to beads, anti-HA-biotin / SA-PE detection
T1 sequence (looked up): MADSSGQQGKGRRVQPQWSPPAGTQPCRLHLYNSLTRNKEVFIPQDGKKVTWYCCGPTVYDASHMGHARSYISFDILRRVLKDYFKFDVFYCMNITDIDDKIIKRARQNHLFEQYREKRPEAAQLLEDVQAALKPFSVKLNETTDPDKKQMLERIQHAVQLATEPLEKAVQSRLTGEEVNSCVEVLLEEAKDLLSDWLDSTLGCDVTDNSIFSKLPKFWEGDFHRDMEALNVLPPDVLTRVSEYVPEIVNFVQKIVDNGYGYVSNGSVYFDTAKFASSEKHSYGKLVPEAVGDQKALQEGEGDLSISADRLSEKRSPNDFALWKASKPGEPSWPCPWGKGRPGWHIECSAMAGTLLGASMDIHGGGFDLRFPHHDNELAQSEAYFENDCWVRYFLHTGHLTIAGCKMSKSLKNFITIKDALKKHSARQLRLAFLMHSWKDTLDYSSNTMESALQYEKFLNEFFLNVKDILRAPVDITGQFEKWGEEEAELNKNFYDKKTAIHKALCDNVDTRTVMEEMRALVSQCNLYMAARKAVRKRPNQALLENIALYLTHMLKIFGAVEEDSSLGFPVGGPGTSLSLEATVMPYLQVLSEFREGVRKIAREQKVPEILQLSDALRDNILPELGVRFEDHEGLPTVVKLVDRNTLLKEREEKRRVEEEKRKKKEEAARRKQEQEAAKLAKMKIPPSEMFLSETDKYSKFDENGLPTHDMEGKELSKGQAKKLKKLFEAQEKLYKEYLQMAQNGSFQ

[2] = target: T2, CRS endogenously expressed in human cells (HeLa cell lysate) (human) (UniProt P49589); assay: western blot of HeLa cell lysate, scFv from periplasmic extract, anti-HA-HRP detection
T2 sequence (looked up): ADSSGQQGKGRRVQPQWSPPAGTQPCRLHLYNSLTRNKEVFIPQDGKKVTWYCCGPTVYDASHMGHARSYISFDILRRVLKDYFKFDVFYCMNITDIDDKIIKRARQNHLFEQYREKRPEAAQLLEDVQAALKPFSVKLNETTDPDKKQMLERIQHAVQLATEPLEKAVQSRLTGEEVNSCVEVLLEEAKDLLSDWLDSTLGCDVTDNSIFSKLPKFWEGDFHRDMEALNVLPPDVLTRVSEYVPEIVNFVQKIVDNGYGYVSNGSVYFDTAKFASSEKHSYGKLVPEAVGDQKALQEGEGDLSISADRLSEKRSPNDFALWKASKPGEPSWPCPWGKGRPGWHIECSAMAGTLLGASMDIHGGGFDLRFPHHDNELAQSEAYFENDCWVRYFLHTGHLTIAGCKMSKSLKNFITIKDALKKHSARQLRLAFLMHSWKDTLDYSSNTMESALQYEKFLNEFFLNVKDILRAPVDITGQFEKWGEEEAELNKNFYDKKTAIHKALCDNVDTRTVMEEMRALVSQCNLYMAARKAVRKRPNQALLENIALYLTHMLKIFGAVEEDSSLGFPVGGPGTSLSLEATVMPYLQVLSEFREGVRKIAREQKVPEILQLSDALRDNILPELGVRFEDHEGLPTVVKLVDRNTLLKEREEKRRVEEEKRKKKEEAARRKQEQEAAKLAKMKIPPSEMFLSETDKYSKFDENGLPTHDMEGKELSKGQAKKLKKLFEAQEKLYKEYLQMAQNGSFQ

[3] = target: T1, CRS (Cysteinyl-tRNA synthetase), purified recombinant antigen (human); assay: sandwich ELISA, scFv coated as capture antibody, rabbit polyclonal anti-CRS as detection antibody, anti-rabbit IgG-HRP

binding [1]: binds
binding [2]: binds
binding [3]: binds
B1: anti-CRS scFv Biocon-K1 (scFv)
scFv: EVQLLESGGGLVQPVGSLRLSCAASGFTFSNYAMSWVRQAPGKGLEWVSWIYSKGRSTYYGDSAKGRFTISRDNSKNTLYLQMNSLRAEDTAVYYCAKRDNAFDYWGQGTLVTVSSGGGGSGGGGSGGGGSQSVLTQPPSASGTPGQRVTISCSGSSSNIGNNYVYWYQQLPGTAPKLLIYADSQRPSGVPDRFSGSKSGTSASLAISGLRSEDEADYYCGAWDSSLNGYVFGGGTKLTVL

— patent KR20160093503A
